Measurements as given in ChEMBL document CHEMBL3414445, “Blood-brain barrier permeable anticholinesterase aurones: synthesis, structure-activity relationship, and drug-like properties” (Eur J Med Chem, 2015).

Columns and labels:
in vitro [1] = conditions: PAMPA, pH 7.4
in vitro [2] = conditions: PAMPA

Compound: COc1cc2c(cc1OC)C(=O)C(CC1CCN(Cc3ccccc3)CC1)C2 (configuration not stated) [DONEPEZIL]
- Papp (in vitro [1]): 28.3 ×10⁻⁶ cm/s
- Papp (in vitro [2]): 12 ×10⁻⁶ cm/s
